These are yes or no findings as the source states them, for the method shown. In cells and extracts the contact can be indirect. Some binding calls cover weakened binding; strength is not graded here. Where a sequence is shown, tags or fusion partners need not be part of it.
Target: T1, Polycomb (Pc) (Drosophila (endogenous in S2 cells)) (UniProt P26017)
T1 sequence: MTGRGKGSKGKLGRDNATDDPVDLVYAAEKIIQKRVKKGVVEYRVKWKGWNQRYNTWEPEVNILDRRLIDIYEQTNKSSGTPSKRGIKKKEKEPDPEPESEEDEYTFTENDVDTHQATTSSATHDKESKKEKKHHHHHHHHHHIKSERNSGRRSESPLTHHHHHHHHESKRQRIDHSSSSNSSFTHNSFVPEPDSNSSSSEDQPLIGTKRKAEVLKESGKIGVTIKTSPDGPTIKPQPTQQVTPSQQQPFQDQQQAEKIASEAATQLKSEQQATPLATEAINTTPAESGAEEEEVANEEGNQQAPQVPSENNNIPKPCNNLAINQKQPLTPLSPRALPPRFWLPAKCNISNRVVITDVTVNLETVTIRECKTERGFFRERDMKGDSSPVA
Experiment: co-IP; total lysates of FLAG-CCT7 stable S2 cells and empty-vector cells (50 mM NaCl, 50 mM Tris pH 8.0, 1 mM EDTA, 1% Triton X-100; sonicated); precipitated with anti-Pc antibody and DYNA beads at 4°C; Western blot with anti-FLAG and anti-Pc

- binding: binds
B1: FLAG-CCT7 (chaperonin containing TCP-1 subunit 7, FLAG-tagged) (protein, UniProt Q9VHL2 1-544)
chain: MQPQIVLLKEGTDSSQGKPQLVSNINACQSIVDAVRTTLGPRGMDKLIVDAHGKATISNDGATIMKLLEIIHPAAKTLVDIAKSQDAEVGDGTTSVVLLAGEFLKQVKPFVEEGVHPRVIIKAIRKALQLCMEKINEMAVQIVEQSKDQQRALLEKCAATAMSSKLIHQQKDFFSRIVVDAVLSLDELLPLNMIGIKKVTGGSLEESQLVSGVAFKKTFSYAGFEMAPKSYDNCKIALLNIELELKAERDNAEIRVDNVKEYQKVVDAEWQILYNKLAKIHESGANVVLSKLPIGDVATQYFADRDIFCAGRVPEEDLKRTMKACGGAVMTTANDIKPNVLGLCEHFEERQVGGERFNLFQGCPNAKTSTLILRGGAEQFLEETERSLHDAIMIVRRTIKHDSVVAGGGAIEMELSKLLRDYSRTIAGKEQLLIAAIAKGLEIIPRQLCDNAGFDATNILNKLRQKHAQGGQWYGVDINKEDISDNYEQCVWEPSIIKINALTAAAEAACMILSVDETIKSPKAGEPPMAGGGMGMGRGMGRPM

Reference: PMC8517254
